Source: paper PMC10079838
These are yes or no findings as the source states them, for the method shown. In cells and extracts the contact can be indirect. Some entries that bind do so weakly or less than the wild type.

Protein sequences, listed by entry. Tags and fused reporters are not part of them. Residues count along the entry.
UniProt Q9CUN6: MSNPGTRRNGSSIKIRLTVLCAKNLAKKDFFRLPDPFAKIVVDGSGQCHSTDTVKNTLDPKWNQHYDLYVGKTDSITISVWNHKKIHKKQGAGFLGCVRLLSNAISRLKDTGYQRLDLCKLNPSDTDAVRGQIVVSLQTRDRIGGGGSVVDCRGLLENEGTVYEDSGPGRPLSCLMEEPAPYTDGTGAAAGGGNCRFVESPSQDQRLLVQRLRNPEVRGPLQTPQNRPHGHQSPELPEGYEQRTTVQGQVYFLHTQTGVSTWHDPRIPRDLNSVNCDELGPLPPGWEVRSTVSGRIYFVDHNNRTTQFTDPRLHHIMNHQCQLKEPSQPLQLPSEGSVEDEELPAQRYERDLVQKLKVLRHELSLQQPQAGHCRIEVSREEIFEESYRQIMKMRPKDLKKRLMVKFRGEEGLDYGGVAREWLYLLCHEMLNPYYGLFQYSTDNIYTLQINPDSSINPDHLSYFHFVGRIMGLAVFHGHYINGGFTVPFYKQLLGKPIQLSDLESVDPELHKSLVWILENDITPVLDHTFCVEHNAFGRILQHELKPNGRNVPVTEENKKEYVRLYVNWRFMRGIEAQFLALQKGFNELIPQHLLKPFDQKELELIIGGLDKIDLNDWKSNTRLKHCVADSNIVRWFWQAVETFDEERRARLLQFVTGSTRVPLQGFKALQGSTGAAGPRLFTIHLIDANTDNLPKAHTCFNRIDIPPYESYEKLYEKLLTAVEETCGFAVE
UniProt Q7TQI3: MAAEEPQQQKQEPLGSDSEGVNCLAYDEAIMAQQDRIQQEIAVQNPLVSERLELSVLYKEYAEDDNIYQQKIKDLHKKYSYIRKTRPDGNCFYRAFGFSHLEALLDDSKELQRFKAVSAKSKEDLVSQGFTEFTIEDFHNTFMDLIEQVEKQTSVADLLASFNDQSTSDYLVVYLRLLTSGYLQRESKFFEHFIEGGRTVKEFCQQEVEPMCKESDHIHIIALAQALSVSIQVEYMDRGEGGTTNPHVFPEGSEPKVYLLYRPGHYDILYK
UniProt Q9HCE7: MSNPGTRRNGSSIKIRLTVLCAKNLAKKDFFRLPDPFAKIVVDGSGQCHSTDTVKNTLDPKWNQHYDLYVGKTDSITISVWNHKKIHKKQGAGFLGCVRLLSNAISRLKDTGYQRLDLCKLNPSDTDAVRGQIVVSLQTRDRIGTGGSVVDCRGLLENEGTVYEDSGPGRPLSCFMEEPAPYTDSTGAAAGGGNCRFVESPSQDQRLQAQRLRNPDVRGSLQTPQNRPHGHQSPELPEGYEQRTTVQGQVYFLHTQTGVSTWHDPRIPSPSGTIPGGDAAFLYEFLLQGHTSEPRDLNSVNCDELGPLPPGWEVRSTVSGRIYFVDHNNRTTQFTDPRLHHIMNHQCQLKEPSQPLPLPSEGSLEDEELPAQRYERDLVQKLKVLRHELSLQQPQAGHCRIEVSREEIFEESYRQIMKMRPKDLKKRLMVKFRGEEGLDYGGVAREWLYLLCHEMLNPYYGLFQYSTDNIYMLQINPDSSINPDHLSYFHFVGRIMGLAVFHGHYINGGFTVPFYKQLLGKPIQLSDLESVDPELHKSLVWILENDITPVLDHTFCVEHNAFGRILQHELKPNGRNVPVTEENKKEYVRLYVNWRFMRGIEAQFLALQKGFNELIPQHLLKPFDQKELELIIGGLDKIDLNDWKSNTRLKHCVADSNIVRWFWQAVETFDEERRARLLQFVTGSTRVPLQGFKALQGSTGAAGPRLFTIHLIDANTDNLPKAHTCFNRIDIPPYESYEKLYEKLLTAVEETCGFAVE
UniProt P21803, residues 22-821: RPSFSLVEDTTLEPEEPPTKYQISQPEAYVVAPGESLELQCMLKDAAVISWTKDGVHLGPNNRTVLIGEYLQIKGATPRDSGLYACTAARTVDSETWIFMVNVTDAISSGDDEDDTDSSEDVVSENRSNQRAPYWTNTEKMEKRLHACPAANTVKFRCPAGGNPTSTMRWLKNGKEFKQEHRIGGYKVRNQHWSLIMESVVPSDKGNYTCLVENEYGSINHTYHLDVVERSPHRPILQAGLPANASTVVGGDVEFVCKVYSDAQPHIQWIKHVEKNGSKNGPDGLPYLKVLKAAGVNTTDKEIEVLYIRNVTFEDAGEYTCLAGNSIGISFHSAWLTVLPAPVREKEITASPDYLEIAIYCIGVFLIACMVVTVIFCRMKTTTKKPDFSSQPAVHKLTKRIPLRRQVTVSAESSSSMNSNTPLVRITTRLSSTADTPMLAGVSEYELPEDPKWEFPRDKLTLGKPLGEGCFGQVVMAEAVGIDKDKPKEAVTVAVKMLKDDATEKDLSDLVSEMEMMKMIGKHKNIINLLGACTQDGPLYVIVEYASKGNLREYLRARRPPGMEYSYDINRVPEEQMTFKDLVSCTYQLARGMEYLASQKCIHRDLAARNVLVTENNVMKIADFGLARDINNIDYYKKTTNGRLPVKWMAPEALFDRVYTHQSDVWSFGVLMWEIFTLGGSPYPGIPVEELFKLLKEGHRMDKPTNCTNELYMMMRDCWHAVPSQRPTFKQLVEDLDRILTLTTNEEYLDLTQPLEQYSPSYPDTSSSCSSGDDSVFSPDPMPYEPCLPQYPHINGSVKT
UniProt P21802, residues 22-821: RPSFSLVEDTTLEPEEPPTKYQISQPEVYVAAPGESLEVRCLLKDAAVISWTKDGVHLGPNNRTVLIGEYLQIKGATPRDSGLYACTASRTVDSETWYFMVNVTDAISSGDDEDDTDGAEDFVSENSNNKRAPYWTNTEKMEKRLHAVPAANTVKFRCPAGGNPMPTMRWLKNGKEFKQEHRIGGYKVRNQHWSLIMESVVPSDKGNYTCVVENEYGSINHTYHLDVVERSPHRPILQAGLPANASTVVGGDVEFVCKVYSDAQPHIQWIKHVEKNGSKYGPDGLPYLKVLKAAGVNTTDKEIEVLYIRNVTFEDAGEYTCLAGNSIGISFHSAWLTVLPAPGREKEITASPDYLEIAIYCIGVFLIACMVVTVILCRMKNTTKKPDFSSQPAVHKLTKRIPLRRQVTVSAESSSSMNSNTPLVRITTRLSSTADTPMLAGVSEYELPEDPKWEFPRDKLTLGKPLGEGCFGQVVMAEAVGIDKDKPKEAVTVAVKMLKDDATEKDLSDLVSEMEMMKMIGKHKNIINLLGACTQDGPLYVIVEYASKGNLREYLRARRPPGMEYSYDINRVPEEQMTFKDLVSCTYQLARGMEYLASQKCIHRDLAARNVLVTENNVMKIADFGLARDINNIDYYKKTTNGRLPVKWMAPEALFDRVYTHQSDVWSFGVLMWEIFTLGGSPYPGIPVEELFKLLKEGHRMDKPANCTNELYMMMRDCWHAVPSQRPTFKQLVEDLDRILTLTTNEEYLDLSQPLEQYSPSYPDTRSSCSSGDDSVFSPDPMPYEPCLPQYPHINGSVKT

What was measured:
[1] = molecular target: SMURF1 (endogenous, mouse osteoblasts) (mouse (endogenous in osteoblasts)) (UniProt Q9CUN6); experiment: co-IP; endogenous proteins in osteoblast (OB) and HEK293T cells; immunoblot
GST-OTUB1 = GST-OTUB1 (UniProt Q7TQI3); experiment: pull-down; GST-OTUB1 on glutathione Sepharose 4B beads incubated in bone lysates at 4 °C overnight; washed four times with GST binding buffer (100 mM NaCl, 10 mM Tris, 50 mM NaF, 2 mM EDTA, 0.5 mM Na3VO4, 1% NP-40); western blot; only the target purified
[2] = molecular target: SMURF1 (endogenous, HEK293T) (human (endogenous in HEK293T)) (UniProt Q9HCE7); experiment: co-IP; endogenous proteins in osteoblast (OB) and HEK293T cells; immunoblot
Flag-Smurf1 [3] = molecular target: Flag-Smurf1 (UniProt Q9CUN6); experiment: co-IP; HEK293T cells with or without GFP-Otub1; immunoblot
Flag-Otub1-FL = Flag-Otub1-FL (UniProt Q7TQI3); experiment: co-IP; HEK293T cells transfected with tagged constructs, lysed after 48 h in HEPES lysis buffer (20 mM HEPES pH 7.2, 50 mM NaCl, 0.5% Triton X-100, 1 mM NaF, 1 mM dithiothreitol); primary antibody and protein A/G agarose beads at 4 °C overnight; western blot
Flag-Smurf1 [4] = molecular target: Flag-Smurf1 (UniProt Q9CUN6); experiment: as above

With “FGFR2 (endogenous, mouse) (from UniProt P21803 22-821) (receptor)” the binding [1] was “binds” and the binding (GST-OTUB1) was “binds”.
For “FGFR2 (endogenous, HEK293T) (from UniProt P21802 22-821) (receptor)”, the binding [2] was “binds”.
For “Myc-Fgfr2 (from UniProt P21803 22-821) (receptor)”, the binding (Flag-Smurf1 [3]) was “binds”, the binding (Flag-Otub1-FL) was “binds” and the binding (Flag-Smurf1 [4]) was “binds”.
